Experimental data taken from paper PMC7657459, “A second hybrid-binding domain modulates the activity of Drosophila ribonuclease H1”.
Where two headings read alike, the source gives them in different places. These are yes or no findings as the source states them, for the method shown. Binding seen in cells or lysates may run through a third protein. A yes stands for co-enrichment or nearness to the bait. Other partners may have been found.

Protein sequences, listed by entry. Tags and fused reporters are not part of them. Lines headed by an entry give the natural chain unless they say otherwise; changes in a name come on top.
UniProt A1Z769: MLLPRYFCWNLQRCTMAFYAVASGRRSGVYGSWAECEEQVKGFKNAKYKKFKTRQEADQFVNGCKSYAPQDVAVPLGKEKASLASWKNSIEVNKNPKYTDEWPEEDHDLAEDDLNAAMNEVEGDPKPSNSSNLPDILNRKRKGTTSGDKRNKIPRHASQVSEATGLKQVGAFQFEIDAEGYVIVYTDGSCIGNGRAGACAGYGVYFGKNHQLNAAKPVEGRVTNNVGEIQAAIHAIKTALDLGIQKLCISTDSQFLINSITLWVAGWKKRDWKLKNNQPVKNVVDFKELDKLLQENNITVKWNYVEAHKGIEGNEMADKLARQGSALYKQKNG
UniProt Q9VDT1: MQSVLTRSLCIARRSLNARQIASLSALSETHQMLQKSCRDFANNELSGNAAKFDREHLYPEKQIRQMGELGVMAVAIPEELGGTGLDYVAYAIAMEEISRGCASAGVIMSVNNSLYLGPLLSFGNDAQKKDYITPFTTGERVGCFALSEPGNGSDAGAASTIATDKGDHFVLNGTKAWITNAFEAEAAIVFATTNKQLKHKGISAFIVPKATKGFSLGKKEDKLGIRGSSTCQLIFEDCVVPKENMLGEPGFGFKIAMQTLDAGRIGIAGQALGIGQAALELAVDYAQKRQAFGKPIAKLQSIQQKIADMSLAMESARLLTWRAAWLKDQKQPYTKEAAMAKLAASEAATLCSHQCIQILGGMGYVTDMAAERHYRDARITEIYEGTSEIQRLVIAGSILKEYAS
UniProt Q9VPR3: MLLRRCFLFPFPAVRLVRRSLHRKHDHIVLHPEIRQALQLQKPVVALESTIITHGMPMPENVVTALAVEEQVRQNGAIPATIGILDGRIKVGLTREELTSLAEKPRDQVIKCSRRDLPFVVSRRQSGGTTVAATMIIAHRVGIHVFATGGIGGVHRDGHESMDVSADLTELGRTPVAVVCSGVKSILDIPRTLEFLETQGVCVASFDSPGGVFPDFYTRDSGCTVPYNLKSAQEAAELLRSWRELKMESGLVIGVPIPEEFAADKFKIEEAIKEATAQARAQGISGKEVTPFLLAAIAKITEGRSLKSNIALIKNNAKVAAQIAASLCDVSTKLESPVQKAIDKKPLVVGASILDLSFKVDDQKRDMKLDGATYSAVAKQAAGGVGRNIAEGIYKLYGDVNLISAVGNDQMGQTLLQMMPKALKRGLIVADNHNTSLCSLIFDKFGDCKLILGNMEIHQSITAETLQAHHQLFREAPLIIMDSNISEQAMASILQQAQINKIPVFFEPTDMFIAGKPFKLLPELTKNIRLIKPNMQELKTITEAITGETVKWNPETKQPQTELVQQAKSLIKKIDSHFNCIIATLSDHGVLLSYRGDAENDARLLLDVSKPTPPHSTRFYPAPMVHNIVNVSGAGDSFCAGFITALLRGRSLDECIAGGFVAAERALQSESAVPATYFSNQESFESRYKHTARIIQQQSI
UniProt Q9VGC2: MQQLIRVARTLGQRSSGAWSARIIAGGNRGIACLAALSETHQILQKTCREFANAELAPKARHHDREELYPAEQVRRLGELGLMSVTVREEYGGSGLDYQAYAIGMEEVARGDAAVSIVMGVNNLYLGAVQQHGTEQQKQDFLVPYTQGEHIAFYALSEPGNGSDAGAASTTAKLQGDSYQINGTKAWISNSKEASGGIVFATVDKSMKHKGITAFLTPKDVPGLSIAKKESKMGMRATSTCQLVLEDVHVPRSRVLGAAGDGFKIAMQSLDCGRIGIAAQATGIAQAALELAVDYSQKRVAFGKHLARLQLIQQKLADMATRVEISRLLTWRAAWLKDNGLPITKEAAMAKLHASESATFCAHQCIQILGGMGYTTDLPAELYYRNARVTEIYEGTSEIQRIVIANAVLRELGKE
UniProt Q9VB10: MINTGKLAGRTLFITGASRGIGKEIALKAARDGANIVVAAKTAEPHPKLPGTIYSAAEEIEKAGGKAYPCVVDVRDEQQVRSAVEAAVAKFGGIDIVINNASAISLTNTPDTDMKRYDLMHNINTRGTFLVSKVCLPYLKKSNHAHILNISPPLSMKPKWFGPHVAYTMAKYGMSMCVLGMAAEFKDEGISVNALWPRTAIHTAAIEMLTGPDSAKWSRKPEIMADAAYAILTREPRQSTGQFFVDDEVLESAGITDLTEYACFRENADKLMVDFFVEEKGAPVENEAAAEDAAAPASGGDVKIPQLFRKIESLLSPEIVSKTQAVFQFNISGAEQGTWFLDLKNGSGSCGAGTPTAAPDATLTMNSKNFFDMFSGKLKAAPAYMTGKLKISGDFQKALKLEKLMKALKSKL
UniProt Q9VXY3: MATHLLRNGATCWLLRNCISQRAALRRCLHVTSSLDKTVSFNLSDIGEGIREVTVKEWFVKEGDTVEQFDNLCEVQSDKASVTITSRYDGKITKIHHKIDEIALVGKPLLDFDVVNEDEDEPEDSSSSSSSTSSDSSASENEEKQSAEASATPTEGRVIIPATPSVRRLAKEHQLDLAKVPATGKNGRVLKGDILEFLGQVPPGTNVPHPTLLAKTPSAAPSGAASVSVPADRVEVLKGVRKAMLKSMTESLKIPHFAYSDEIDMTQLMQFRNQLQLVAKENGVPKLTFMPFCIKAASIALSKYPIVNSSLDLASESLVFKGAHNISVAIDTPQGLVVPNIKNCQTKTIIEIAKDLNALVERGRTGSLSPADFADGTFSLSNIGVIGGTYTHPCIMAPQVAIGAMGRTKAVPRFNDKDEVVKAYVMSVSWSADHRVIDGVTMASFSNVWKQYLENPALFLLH
UniProt Q9W022: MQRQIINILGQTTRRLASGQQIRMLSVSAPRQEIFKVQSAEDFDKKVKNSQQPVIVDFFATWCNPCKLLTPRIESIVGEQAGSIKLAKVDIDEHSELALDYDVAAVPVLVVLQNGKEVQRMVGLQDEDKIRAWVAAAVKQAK
UniProt Q9VES8: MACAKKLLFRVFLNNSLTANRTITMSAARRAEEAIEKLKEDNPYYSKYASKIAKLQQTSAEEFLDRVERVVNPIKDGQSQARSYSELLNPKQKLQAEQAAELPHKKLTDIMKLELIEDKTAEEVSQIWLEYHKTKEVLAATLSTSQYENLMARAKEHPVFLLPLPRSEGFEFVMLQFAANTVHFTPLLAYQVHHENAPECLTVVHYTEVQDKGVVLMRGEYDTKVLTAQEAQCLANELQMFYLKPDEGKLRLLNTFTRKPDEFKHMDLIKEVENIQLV
UniProt Q9VRJ4: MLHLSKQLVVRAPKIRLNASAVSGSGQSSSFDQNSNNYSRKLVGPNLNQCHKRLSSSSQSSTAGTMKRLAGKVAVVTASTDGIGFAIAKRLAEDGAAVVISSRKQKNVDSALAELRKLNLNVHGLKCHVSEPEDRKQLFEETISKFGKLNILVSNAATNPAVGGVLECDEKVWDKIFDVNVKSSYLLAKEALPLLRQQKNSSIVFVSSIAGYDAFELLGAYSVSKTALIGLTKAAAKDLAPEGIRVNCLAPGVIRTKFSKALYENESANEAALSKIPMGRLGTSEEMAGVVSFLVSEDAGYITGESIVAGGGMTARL
UniProt Q9VU35: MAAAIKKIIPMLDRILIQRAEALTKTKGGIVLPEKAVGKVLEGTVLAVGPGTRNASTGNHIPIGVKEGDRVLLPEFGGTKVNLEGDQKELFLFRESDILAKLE
UniProt Q9VL60: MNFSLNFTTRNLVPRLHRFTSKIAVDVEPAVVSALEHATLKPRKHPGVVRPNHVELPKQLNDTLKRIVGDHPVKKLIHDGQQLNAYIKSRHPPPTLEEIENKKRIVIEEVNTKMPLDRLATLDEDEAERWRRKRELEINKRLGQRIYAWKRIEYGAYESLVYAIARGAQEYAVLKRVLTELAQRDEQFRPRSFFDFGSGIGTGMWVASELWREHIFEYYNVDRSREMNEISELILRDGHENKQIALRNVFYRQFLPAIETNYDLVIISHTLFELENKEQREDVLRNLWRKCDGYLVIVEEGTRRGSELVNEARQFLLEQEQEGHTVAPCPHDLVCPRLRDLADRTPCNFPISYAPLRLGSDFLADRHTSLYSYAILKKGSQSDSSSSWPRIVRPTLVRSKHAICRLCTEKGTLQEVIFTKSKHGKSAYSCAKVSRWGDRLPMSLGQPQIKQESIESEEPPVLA
UniProt O97125: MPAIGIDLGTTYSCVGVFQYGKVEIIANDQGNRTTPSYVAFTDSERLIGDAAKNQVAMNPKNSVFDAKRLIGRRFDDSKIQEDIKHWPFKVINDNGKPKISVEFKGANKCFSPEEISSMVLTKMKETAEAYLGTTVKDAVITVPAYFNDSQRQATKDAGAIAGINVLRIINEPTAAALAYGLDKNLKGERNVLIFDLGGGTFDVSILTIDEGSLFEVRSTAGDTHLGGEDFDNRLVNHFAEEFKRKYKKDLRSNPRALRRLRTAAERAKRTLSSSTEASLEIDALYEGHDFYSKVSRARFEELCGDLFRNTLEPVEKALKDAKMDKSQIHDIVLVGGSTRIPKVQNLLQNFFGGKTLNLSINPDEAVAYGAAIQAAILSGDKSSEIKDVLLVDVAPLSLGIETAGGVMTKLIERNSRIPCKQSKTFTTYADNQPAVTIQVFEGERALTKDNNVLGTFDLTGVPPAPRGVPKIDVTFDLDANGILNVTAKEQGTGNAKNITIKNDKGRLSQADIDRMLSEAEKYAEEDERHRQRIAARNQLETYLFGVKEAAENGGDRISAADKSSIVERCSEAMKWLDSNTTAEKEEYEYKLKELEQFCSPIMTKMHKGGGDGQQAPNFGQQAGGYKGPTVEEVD
UniProt Q9VZ82: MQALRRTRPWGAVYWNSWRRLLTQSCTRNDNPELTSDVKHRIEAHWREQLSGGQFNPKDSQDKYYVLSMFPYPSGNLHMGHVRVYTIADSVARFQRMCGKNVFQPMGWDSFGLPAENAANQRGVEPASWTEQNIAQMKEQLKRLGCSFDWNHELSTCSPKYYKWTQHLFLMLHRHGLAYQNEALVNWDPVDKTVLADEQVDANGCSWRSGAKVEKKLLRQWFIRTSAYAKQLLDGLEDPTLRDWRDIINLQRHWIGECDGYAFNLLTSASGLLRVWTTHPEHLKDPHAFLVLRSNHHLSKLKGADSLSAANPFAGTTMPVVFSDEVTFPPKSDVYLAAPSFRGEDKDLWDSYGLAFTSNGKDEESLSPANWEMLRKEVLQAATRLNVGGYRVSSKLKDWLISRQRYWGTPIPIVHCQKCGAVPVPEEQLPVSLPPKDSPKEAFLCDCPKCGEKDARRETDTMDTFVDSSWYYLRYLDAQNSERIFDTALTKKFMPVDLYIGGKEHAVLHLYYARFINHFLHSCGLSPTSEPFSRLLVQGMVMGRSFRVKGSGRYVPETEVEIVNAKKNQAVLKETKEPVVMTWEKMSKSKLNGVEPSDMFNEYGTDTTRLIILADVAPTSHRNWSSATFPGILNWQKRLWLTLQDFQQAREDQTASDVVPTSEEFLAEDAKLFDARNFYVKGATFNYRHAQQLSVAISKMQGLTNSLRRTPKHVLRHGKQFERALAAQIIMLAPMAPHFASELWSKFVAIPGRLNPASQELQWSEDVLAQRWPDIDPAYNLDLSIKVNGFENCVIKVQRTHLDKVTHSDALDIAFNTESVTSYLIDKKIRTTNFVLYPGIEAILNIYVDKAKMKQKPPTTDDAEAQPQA
UniProt Q9VQD7: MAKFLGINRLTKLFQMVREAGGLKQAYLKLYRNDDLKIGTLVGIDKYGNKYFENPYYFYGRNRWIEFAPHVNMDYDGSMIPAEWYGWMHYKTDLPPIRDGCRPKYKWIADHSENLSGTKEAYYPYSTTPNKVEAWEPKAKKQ
UniProt Q9V470: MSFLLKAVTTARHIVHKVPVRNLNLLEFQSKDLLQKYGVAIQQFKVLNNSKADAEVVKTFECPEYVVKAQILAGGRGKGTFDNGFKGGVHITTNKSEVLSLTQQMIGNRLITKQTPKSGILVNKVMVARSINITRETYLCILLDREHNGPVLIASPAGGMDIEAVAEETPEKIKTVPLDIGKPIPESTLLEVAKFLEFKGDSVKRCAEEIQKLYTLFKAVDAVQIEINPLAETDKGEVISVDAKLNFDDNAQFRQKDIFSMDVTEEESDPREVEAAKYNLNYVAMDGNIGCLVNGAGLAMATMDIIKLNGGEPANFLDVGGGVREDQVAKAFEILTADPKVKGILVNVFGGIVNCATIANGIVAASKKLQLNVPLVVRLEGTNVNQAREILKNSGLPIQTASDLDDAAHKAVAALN
UniProt A1Z9E3: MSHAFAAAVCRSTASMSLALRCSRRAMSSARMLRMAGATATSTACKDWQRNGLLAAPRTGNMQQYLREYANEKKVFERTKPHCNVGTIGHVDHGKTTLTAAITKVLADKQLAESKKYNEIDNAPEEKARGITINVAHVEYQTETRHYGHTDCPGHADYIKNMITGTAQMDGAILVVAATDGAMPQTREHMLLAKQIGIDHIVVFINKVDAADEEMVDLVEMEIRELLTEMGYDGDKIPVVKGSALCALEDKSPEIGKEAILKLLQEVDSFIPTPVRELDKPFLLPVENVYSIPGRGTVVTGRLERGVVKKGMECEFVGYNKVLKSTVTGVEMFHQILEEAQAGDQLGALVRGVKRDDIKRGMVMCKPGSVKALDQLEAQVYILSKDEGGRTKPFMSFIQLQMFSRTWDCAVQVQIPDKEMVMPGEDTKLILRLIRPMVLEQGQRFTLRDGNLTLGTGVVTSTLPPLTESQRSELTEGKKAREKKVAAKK

B1: Medium-chain acyl-CoA dehydrogenase (protein, UniProt Q9VSA3 23-419)
chain: AAVSHVSPNGTSFALTEDQLQLQELARKFTREEIIPVAAQYDKSGEYPWPIIKKAWELGLMNNHIPADIGGLDLDVFTTCLSAEELAYGCTGIMTALEASGLGQTPVILSGNKEQKKKYLGRLLEEPLVAAYCVTEPGAGSDVSGIKTRAEKKGDEWVINGQKMWITNGGVANWYFVLARTNPDPKCPPSKAFTGFIVERDSPGLTPGRKELNMGQRASDTRGITFEDVRVPKENVLIGEGAGFKIAMGTFDKTRPPVAAGAVGLAQRCLDEALKYALERKTFGVPIAYHQAVQFMLADMAIGVETSRLAWRLSAWEIDQGRRNSYYASIAKCHAADMANKIASDAVQIFGGNGFNSEYPVEKLMRDAKIYQIYEGTSQIQRLIISRNMYEAAKGQA
B2: Enigma (protein, UniProt Q5U117 27-639)
chain: STKATSSSLDSQHQDAATTEGGRAESVEESPEQQRKLPTREPLAKNFFIGVVDKELLAYPEVIPRDEMAQLENSLLPLKNYFVEPRETEETSPETLRQLGLYGLNVSTDYEGKGYGWSASLMASEPDSTDINVTLGLQTHRVVVDLLKEVGTPLQQQRYLQDLATGKLIGTEAIYEISPPEEDYFNTTAELFPEYGKWQLNGEKSFVICTPGERQLFLVLAQTQQPNVPGVLGRGTTIFLVDSQQEGVRLGEKHATFGCRKAEIRRVHFEGVKLGEDQVVGLPHDGNRYSEQLVRSSRLRGSLVGLSLAKKLLNELAQYTVNTTQCGVQLQDLELTRIHMSRAMCSVYAMESMLYLTAGLLDEFRAQDVTLESAITKYFTLRQVYAIASQNLGVVGPKSLLSGETTELGLRDAAQLCTQGESLDTLGMFIALTGLQHAGQAMNTGVRKSRNPLFNPGHIFGKFLDNNSIDNPKTKMQLSEHVHPSLEAAAQCIELSVARLQMAVELMFTKHGNAVVERQSEMQRLAEVGTLIYAMWASVARASRSYCIGLPLADHELLTATAICSEGRDRVRTLCTEIYGGHFVNNDNNLVRLSKQVAKSKGYFAVHPLTFNF
B3: CG16935 [Trans-2-enoyl-CoA reductase (NADPH)] (protein, UniProt Q9V6U9 20-357)
chain: SVVAKSLKYTQHGEPQEVLQLVEDKLPDPKDNQVLVKILAAPINPADINTIQGKYPVKPKFPAVGGNECVAEVICVGDKVKGFEAGQHVIPLASGLGTWTTHAVYKEDQLLIVSKKVGLAEAATSTVNPTTAYRMLKDFVQLCPGDTVIQNGANSAVGQAVHQLCRAWGINSVGIVRDRPEIAELKQMLQCLGATEVLTEAEIRTSDIFKSGKLKKPRLAFNCVGGKSATEVSRHLDNGGVLVTYGGMSREPVTVATGPLIFKDIAFRGFWMTRWSKENYSSPERSKMFKEIFELMEQGKFVAPNHEMVPLAKFKDAAAAALSFKGFTGKKYILDMSI
B4: bad egg (protein, UniProt Q8T3L6 24-379)
chain: SDAAKATTETSALLQNAEKRQQLLNELSEPLEQKGRPAIDPKETSVMLFPGQGTQYVGMAKDLLRFPGARRIFELANEVLKYDLLKICLEGPREKLNRTEHAQLAVMVSSLAALEQLREERPKAIETCVAAAGFSLGEITALVYADALPFDKALRLVQVRATAMQAACDQAAGAMAMTLYGPDTNLGEACARAQQWCLDKGVESPYCGIANYMYPHCKVVAGNVEALEFLEQNAKSFKIRRMKRLAVSGAFHTPLMQSAVEPFTKALKTVRLQDPVIRVYSNVDGKPYRHAKHILTQLPKQIVRPVKWEQTLHEMYERKQGVDFPRTFECGPGKGLVQVLEKVNAKAAQSSFNVIA
B5: Electron transfer flavoprotein-ubiquinone oxidoreductase (protein, UniProt Q7JWF1 24-604)
chain: DVAKYPRITTHYTLNPREKDERWTEVDMERCVEEVDLVIVGGGPAGMSAAIRAKQLAAEKDQEIRVCVVEKAAEVGGHILSGAVIDPISLNELIPDWQEQGAPLNTPVTKDTFSFLTGSGRISIPVFKGWPMDNHGNYVVRLGHLVKWLGDQAEALGVEIYPGCAASEVLFHEDGSVKGIATNDVGIAKSGAPKDTFARGMELHAKTTIFAEGCRGHLTKQIMQKFGLNEGSEPQAYGIGLKEVWEIAPEKHQPGLVEHTIGWPLDRFTYGGSFLYHLNEPTPTIAVGFVVGLNYKNPWLSPFQEFQRFKTHPKVRDVFEGATRIAYGARAINEGGFQSLPQKLSFPGGCLVGCSAGFLNVPRIKGSHYAMKSGMLAAESAFEAINADAQSTAGVEPTGYAEKIKDSFVWKDLYSVRNVHPSFHNPLGLYGGLVLSGFSIFMGGREPWTLKHGPQDHESLKPASSCPPIVYPKPDGKISFDLLSSVALTGTNHEGDQPAHLTLKDDRIPVDHNLALYEGPEQRFCPAGVYEYVPNEEGGNMKLQINAQNCIHCKTCDIKDPKQNINWVVPEGGGGPAYNGM
B6: Methylcrotonoyl-CoA carboxylase 2 (protein, UniProt Q9V9A7 30-578)
chain: LHSEVDKQSAEYKENAREMASLVGDLRNFTSQVLKGGGQKAIERHTSRGKLLARERINLLLDKGSPFLELSALAGHELYGEEVVNSGGIVTGVGRVCGTECLVVANDATVKGGSYYPITVKKHLRAQEIAQENRLPCIYLVDSGGANLPRQADVFPDKLHFGRIFYNQANMSAQGIPQIAVVMGSCTAGGAYVPAMADESIIVKKQGTIFLAGPPLVKAATGEEVSAEDLGGADLHCKTSGVTDHYALDDEHALYLARQIVSNLNLSATNSYNDQLMHSSQVNFQTATPPSAVEEPRYDAEELYGIVGPNLTKSFDVREVIARIVDGSRFTEFKKLYGETLVCGFAKLYGHTVGIVGNNGVLFSESALKGAHFIQLCAQRKIPLVFLQNITGFMVGRDAEANGIAKNGAKMVTAVACANVPKFTVIIGGSYGAGNYGMCGRAYSPRFLYMWPNSRISVMGGTQAANVMAQITEDQRKRAGKEFSEEEAQKLKAPIVEMFEAEGSPYYSTARLWDDGIIDPANTRQILGLSLKAALNNAGQETKFGVFRM
B7: Mitochondrial elongation factor Ts (protein, UniProt Q9VJC7 19-318)
chain: AGSGGSGGLEKSALAALRKKTGYTFANCKKALEKHNNDVGLAEKWLHEQAQTLGWSKATKVADRATAHGLIGVLIRGNRGAMVELNCETDFVARNDTFKRFVDHVACMCLQYTDLTDFDGDLWKLGFDADALRNLRTEEGRTLGDHLALLIGAIGENATIRRALCFKANNDLKLVGYAHPAPTNVGTTEGITQVGKYGAIVAYRSTHPLLDFEFHKSICQQIVGMKPTKIGEYDKDKPAENKDDETCLIHQEYLLDADKTVGEALQEHNCEIVDYHRFECGEHTERSLEAIIRSQHQSSN
B8: NADH-ubiquinone oxidoreductase 75 kDa subunit (protein, UniProt Q94511 28-731)
chain: SAMVAQTPAKAPEKIEVFVDDIPVQVVPGTTVLQAAAQIGVEIPRFCYHERLAVAGNCRMCLVEVEKSPKPVAACAMPVMKGWRIKTNSDLTRKAREGVMEFLLMNHPLDCPICDQGGECDLQDQAMAFGSDRSRFTDINYTGKRAVEDKDIGPLVKTIMTRCIHCTRCVRFASEIAGVDDLGTTGRGNDMQIGTYVEKLFLTELSGNVIDLCPVGALTNKPYSFVARPWEIRKVSSIDVLDAVGSNIVVSTRTNEVLRILPRENEDVNEEWLADKSRFACDGLKRQRLVAPMVRMPNGELQAVEWEGALIAVAKAIKAAGGQIAGISGQLADLEAQVALKDLLNRLGSEVVATEQGFIAGGTDNRANYLLNSTIAGLEEADAVLLVGTNPRYEAPLVNTRLRKAYVHNELQIASIGPKIDLSYDHENLGADAALVKDVCSGAHAFSKVLEGAKKPAIIIGADLLERADGAAIHATVAEYCKKLKKPNWNPFNVLQTNAAQVGALDVGYKAGAQTAVKAQPKVLFLLNADAGKVTREQLPKDCFVVYIGSHGDNGASIADAVLPGAAYTEKQGIYVNTEGRPQQTLPGVSPPGMAREDWKILRALSEVVGKPLPYDNLDELRNRLEDVAPHLTRLGQLEPAGDAGAAGTISKSIGGGAIDIKLKELRDYFMTDAISRASPTMAKCISAVNKQQRENEAKQSVAI
B9: Peroxiredoxin 3 (protein, UniProt Q9VEJ0 31-234)
chain: LHQTAPLAAVRVQQPAPDFKGLAVVDNSFQEVKLEDYRGKYLVLFFYPLDFTFVCPTEIVAFSERIKEFHDINTEVLGVSVDSHFSHLTWCNVDRKNGGVGQLKYPLLSDLTKKISADYDVLLDKEGISLRGTFIIDPNGILRQYSINDLPVGRSVDEVLRLIKAFQFVEQHGEVCPANWNPNSNPATIKPDVEESKKYFSKHG
B10: Peroxiredoxin 5 (protein, UniProt Q960M4 1-190)
chain: MRVLSCKFLGRVVNSALPQQIISLRSLSKTSAAMVKVGDSLPSVDLFEDSPANKINTGDLVNGKKVIIFGVPGAFTPGCSKTHLPGYVSSADELKSKQGVDEIVCVSVNDPFVMSAWGKEHGAAGKVRLLADPAGGFTKALDVTIDLPPLGGVRSKRYSLVVENGKVTELNVEPDGTGLSCSLANNIGKK

Assays:
[1] = target: Drosophila melanogaster ribonuclease H1, V5/His epitope-tagged (Drosophila melanogaster) (UniProt A1Z769); test: affinity purification with mass spectrometry; S2 cells expressing the tagged RNase H1 bait, cross-linked in vivo with 1% formaldehyde, RIPA lysis, RNase A/DNase I/Benzonase treatment, anti-V5 immunoprecipitation, LC-MS/MS; hits found in all 5 replicates of a bait and absent from all mtYFP controls
[2] = target: Drosophila melanogaster ribonuclease H1, V5/His epitope-tagged (Drosophila melanogaster) (UniProt A1Z769); test: as above; remark: listed apart in the source

Molecule	binding [1]	binding [2]
Arc42 [Short-chain acyl-CoA dehydrogenase] (from UniProt Q9VDT1)	binds	
CG2794 (from UniProt Q9VPR3)	binds	
CG4860 [Short-chain acyl-CoA dehydrogenase] (from UniProt Q9VGC2)	binds	
CG5590 (from UniProt Q9VB10)	binds	
CG5599 (from UniProt Q9VXY3)	binds	
CG7920, isoform A (from UniProt Q9VAC1)	binds	
CG8778 [enoyl-CoA hydratase] (from UniProt A1Z934)	binds	
CG8993 (from UniProt Q9W022)	binds	
CG10194 (from UniProt Q7JVR6)	binds	
CG10340 (from UniProt Q9VES8)	binds	
CG10672 [Carbonyl reductase (NADPH)] (from UniProt Q9VRJ4)	binds	
CG11267 [Hsp10 chaperonin subunit] (from UniProt Q9VU35)	binds	
CG13126 (from UniProt Q9VL60)	binds	
CG13850 (from UniProt Q9VD14)	binds	
Heat shock protein 68 (from UniProt O97125 1-635)	binds	
Leucyl-tRNA synthetase, mitochondrial (from UniProt Q9VZ82)	binds	
NADH dehydrogenase (ubiquinone) B17.2 subunit (from UniProt Q9VQD7)	binds	
Rab7 (from UniProt O76742 1-207)	binds	
Succinyl-coenzyme A synthetase β subunit, GDP-forming (from UniProt Q9V470)	binds	
mitochondrial elongation factor Tu (from UniProt A1Z9E3)	binds	
B1		binds
B2		binds
B3		binds
B4		binds
B5		binds
B6		binds
B7		binds
B8		binds
B9		binds
B10		binds
